This is an account of results in the supplement of paper PMC4604168 (melanoma cell lines).

The list shows a part of the results. Repeats are few or missing, and single values can be far off.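 Cells were imaged in 1,536-well plates, and nuclei stained with an antibody against cleaved PARP were counted against all DNA-stained nuclei to give the apoptosis fraction. Screening doses were chosen to leave most cells alive, and resting and induced cleaved-PARP levels differ strongly between cell lines.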

Some test systems named below: 501Mel; A101D; A2058; A375; C32; CBRC008; CBRC013; CBRC014; CBRC016; CBRC017; COLO792; COLO800; COLO829; G361; IPC-298; IST-MEL1; LB2518-MEL; LOXIMVI; MEL-HO.
Holding throughout (assay): cleaved PARP positive nuclei fraction relative to DMSO control; melanoma cells; higher = more apoptosis
Common to all, as to conditions: library dose: low library concentration; 72 h

Take `N#CC[C@H](C1CCCC1)n1cc(-c2ncnc3[nH]ccc23)cn1` [ruxolitinib] + COc1cc(Nc2ncc(F)c(Nc3ccc4c(n3)NC(=O)C(C)(C)O4)n2)cc(OC)c1OC [Tamatinib] (first compound 1 µM, partner dose 0.4 µM): the “cleaved PARP positive nuclei fraction” value was 87.8% in the assay with 501Mel; 366% in the assay on A101D; 146% in the assay on A2058; 56.9% in the assay on A375; 281% with C32; 244% in the assay with CBRC008. In addition, the “cleaved PARP positive nuclei fraction” value in the assay with CBRC013 was 88.8%; with CBRC014, 65.2%; in the assay with CBRC016, 60.4%; in the assay on CBRC017 (line from a melanoma biopsy) it was 110%; in the assay on COLO792 it was 358%; with COLO800 it was 101%. Further, the “cleaved PARP positive nuclei fraction” value is 73.1% with COLO829; 51.7% in the assay with G361; 99.4% in the assay on IPC-298; 68% with IST-MEL1; 95.8% in the assay on LB2518-MEL; 130% in the assay with LOXIMVI. The “cleaved PARP positive nuclei fraction” value with MEL-HO is 37%.

Regarding `O=C(Nc1cc(C(F)(F)F)cc(C(F)(F)F)c1)c1cc(Cl)ccc1O` + C[C@@H]1CCN(C(=O)CC#N)C[C@@H]1N(C)c1ncnc2[nH]ccc12 [CP690550] (first compound 0.016 µM, partner dose 1 µM), the “cleaved PARP positive nuclei fraction” value in the assay on 501Mel was found to be 196%; in the assay with A101D, 91.1%; in the assay on A2058, 27%; with A375 it was 61.3%; in the assay on C32, 57.5%; in the assay on CBRC008 (line from a melanoma biopsy) it was 54.4%. The “cleaved PARP positive nuclei fraction” value was determined as 93.1% in the assay on CBRC013 (line from a melanoma biopsy); 97.5% in the assay with CBRC014; 45.9% in the assay on CBRC016 (line from a melanoma biopsy); 84.5% in the assay with CBRC017; 19.8% in the assay with COLO792; 62.4% in the assay on COLO800. Further, the “cleaved PARP positive nuclei fraction” value in the assay on COLO829 came out at 81.8%; in the assay with G361, 318%; with IPC-298, 95.8%; in the assay on IST-MEL1 it was 34.9%; in the assay with LB2518-MEL, 192%; with LOXIMVI it was 72.6%. Besides, in the assay on MEL-HO, the “cleaved PARP positive nuclei fraction” value turned out to be 35.1%.

Consider `O=c1[nH]nc(Sc2ncc([N+](=O)[O-])s2)n1-c1ccc2c(c1)OCCO2` + OCCn1cc(-c2cnc3nnn(Cc4ccc5ncccc5c4)c3n2)cn1 [PF04217903] (first compound 0.2 µM, partner dose 1 µM), for which the “cleaved PARP positive nuclei fraction” value with 501Mel came to 73.2%; in the assay on A101D, 76.7%; with A2058, 78%; in the assay on A375, 56.7%; with C32, 85.3%; in the assay on CBRC008 it was 114%. In addition, the “cleaved PARP positive nuclei fraction” value was found to be 88.9% in the assay on CBRC013; 89.9% in the assay with CBRC014; 83.5% with CBRC016; 267% in the assay with CBRC017; 144% with COLO792; 55.5% with COLO800. The “cleaved PARP positive nuclei fraction” value is 90% in the assay with COLO829; 131% in the assay on G361; 181% in the assay on IPC-298; 102% in the assay on IST-MEL1; 47.1% with LB2518-MEL; 109% in the assay on LOXIMVI. Further, the “cleaved PARP positive nuclei fraction” value with MEL-HO came to 86.1%.

For the molecule `CC[C@]1(O)C[C@H]2CN(CCc3c([nH]c4ccccc34)[C@@](C(=O)OC)(c3cc4c(cc3OC)N(C=O)[C@H]3[C@@](O)(C(=O)OC)[C@H](OC(C)=O)[C@]5(CC)C=CCN6CC[C@]43[C@@H]65)C2)C1` [vincristine] + CO[C@@H]1[C@H](N(C)C(=O)c2ccccc2)C[C@H]2O[C@]1(C)n1c3ccccc3c3c4c(c5c6ccccc6n2c5c31)C(=O)NC4 [Midostaurin] (first compound 0.0001 µM, partner dose 0.08 µM), the “cleaved PARP positive nuclei fraction” value in the assay with 501Mel worked out at 81.6%; in the assay with A101D, 107%; with A2058, 297%; in the assay with A375, 97.4%; with C32, 212%; in the assay with CBRC008 it was 75.3%. Moreover, the “cleaved PARP positive nuclei fraction” value is 109% in the assay on CBRC013; 87.6% in the assay on CBRC014 (line from a melanoma biopsy); 227% in the assay on CBRC016; 126% with CBRC017; 134% with COLO792; 12.6% in the assay on COLO800. Further, the “cleaved PARP positive nuclei fraction” value in the assay on COLO829 was 113%; in the assay on G361, 101%; with IPC-298 it was 64.7%; in the assay on IST-MEL1, 91.5%; in the assay with LB2518-MEL it was 49.5%; in the assay with LOXIMVI, 85.2%. In the assay on MEL-HO, the “cleaved PARP positive nuclei fraction” value turned out to be 23.6%.

For the molecule `O=c1[nH]nc(Sc2ncc([N+](=O)[O-])s2)n1-c1ccc2c(c1)OCCO2` + Cc1ccc(NC(=O)c2cccc(N(C)C)c2)cc1NC(=O)c1ccc(O)cc1 [ZM336372] (first compound 0.2 µM, partner dose 2 µM), the “cleaved PARP positive nuclei fraction” value in the assay on 501Mel was determined as 297%; in the assay with A101D, 140%; with A2058 it was 60.6%; with A375, 178%; in the assay with C32, 141%; in the assay on CBRC008, 97.8%. Further, the “cleaved PARP positive nuclei fraction” value was found to be 90.6% in the assay on CBRC013; 106% in the assay with CBRC014; 84.8% in the assay with CBRC016; 93.4% in the assay on CBRC017; 61.5% in the assay with COLO792; 124% in the assay on COLO800. Besides, the “cleaved PARP positive nuclei fraction” value in the assay on COLO829 worked out at 62.6%; in the assay on G361, 106%; with IPC-298, 102%; in the assay on IST-MEL1, 196%; with LB2518-MEL, 52.8%; with LOXIMVI, 33.1%. Besides, the “cleaved PARP positive nuclei fraction” value in the assay with MEL-HO amounted to 75.8%.

Regarding `Cc1ccc(Nc2nccc(N(C)c3ccc4c(C)n(C)nc4c3)n2)cc1S(N)(=O)=O` [Pazopanib] + CO[C@@H]1[C@H](N(C)C(=O)c2ccccc2)C[C@H]2O[C@]1(C)n1c3ccccc3c3c4c(c5c6ccccc6n2c5c31)C(=O)NC4 [Midostaurin] (first compound 0.4 µM, partner dose 0.08 µM), the “cleaved PARP positive nuclei fraction” value in the assay with 501Mel was 201%; with A101D it was 109%; in the assay with A2058 it was 198%; in the assay on A375, 98.6%; with C32, 65.9%; with CBRC008 it was 148%. Besides, the “cleaved PARP positive nuclei fraction” value in the assay with CBRC013 was 113%; in the assay on CBRC014 it was 110%; in the assay on CBRC016 it was 94.9%; in the assay on CBRC017 it was 191%; in the assay on COLO792, 62.1%; with COLO800, 76.7%. Further, the “cleaved PARP positive nuclei fraction” value in the assay on COLO829 was determined as 163%; in the assay on G361 it was 50.6%; in the assay with IPC-298, 126%; in the assay on IST-MEL1, 64.5%; in the assay on LB2518-MEL, 251%; in the assay on LOXIMVI, 118%. Moreover, in the assay with MEL-HO, the “cleaved PARP positive nuclei fraction” value is 120%.

Take `O=C(Nc1cc(C(F)(F)F)cc(C(F)(F)F)c1)c1cc(Cl)ccc1O` + Cc1cc(N2CCOCC2)cc2[nH]c(-c3c(NC[C@@H](O)c4cccc(Cl)c4)cc[nH]c3=O)nc12 [BMS536924] (first compound 0.016 µM, partner dose 0.2 µM): the “cleaved PARP positive nuclei fraction” value with 501Mel amounted to 94.7%; in the assay with A101D, 150%; in the assay with A2058 it was 50.6%; with A375, 139%; in the assay with C32 it was 201%; in the assay on CBRC008 it was 302%. Further, the “cleaved PARP positive nuclei fraction” value was 187% with CBRC013; 79.9% in the assay on CBRC014; 86.3% in the assay with CBRC016; 154% in the assay on CBRC017; 153% in the assay on COLO792; 116% with COLO800. Besides, the “cleaved PARP positive nuclei fraction” value amounted to 99.9% in the assay on COLO829; 113% in the assay with G361; 98.1% in the assay with IPC-298; 102% in the assay on IST-MEL1; 109% with LB2518-MEL; 206% with LOXIMVI. Moreover, in the assay on MEL-HO, the “cleaved PARP positive nuclei fraction” value came out at 62.9%.
